{
  "source": "paper PMC7819943",
  "about": "“Rice protein-binding microarrays: a tool to detect cis-acting elements near promoter regions in rice”",
  "note": "The list shows a part of the results.",
  "data": [
    {"molecular_target": "T1, OsSMF1 (Oryza sativa, UniProt Q6ZLB0 1-436)", "T1 sequence": "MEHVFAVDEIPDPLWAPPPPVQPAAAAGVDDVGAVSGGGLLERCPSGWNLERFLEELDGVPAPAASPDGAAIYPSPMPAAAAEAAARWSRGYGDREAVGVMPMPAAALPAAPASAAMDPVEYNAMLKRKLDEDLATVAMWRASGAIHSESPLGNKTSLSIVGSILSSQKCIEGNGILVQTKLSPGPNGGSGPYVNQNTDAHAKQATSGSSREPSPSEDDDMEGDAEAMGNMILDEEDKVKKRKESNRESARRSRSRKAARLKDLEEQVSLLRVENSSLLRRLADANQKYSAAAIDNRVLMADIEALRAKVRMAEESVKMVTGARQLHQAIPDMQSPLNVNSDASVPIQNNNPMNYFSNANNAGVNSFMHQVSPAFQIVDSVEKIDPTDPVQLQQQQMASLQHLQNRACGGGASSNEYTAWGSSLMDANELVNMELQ", "test": "protein-binding microarray (RPBM); PBS, 2% BSA, 51.3 ng/ul salmon testes DNA, 50 uM zinc acetate, 200 nM TF, 25 C, 1 h; high values mean tight binding", "details": "protein: recombinant; tags: N-terminal polyhistidine and DsRed monomer fusion (pET32a); chain copies: 2; label: CyDye5-dUTP incorporated in the synthesized complementary strand; 3' TTTTT single-stranded linker to array surface; dsDNA, one strand shown", "procedure,_shortened": "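In PBS with 2% BSA, salmon testes DNA and 50 µM zinc acetate, 200 nM protein was incubated on a custom Agilent array at 25 °C for 1 h and then washed off. The array had been made double-stranded by primer extension with Cy5-dUTP and blocked with 2% BSA. The proteins were transcription factors fused N-terminally to polyhistidine and DsRed, expressed in E. coli BL21-CodonPlus and purified on Ni–NTA. The binding signal is per-feature fluorescence intensity (arbitrary units) from an Axon 4000B scanner.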", "values": [
      {"sequence": "CTGCAGTATCCTCCACTCCACTTTGGCACCATTGTCCCACCGGAGTCACCTAGTGCAG", "binding signal": "3900 fluorescence intensity (a.u.)"},
      {"sequence": "TGTTGTTTTCCAGAGCATGTACACACCATGACCACGATGCCGGAGTCACCTAGTGCAG", "binding signal": "3670 fluorescence intensity (a.u.)"},
      {"sequence": "TCCGCCGCCTCGGTCGGCTCACGCGTCCATGTCCATCCCGCGGAGTCACCTAGTGCAG", "binding signal": "3600 fluorescence intensity (a.u.)"},
      {"sequence": "CCAGCGCCGCCAAACCCAACAAGCCATCCGCCGCTGCCAACGGAGTCACCTAGTGCAG", "binding signal": "13300 fluorescence intensity (a.u.)"},
      {"sequence": "ATAAAGAATATGTAGAATTGGAACTATGCTAAGAGAAGAGCGGAGTCACCTAGTGCAG", "binding signal": "3280 fluorescence intensity (a.u.)"},
      {"sequence": "CGCAACAACGGCGACACCGCCGCCAAGGCCCACGCGAGCACGGAGTCACCTAGTGCAG", "binding signal": "3230 fluorescence intensity (a.u.)"},
      {"sequence": "GCGCTAGTGCCTTGCAAAATCGACACGTGGCCCTTCCCCTCGGAGTCACCTAGTGCAG", "binding signal": "15800 fluorescence intensity (a.u.)"},
      {"sequence": "CGTCCTTCTCAGTCAGCGCCCATGACCTGACCTGACCCGACGGAGTCACCTAGTGCAG", "binding signal": "3940 fluorescence intensity (a.u.)"},
      {"sequence": "GGGTGGAGGAGGGGACTTCGGGAGGGCGGTGGCGAGGGCGCGGAGTCACCTAGTGCAG", "binding signal": "5360 fluorescence intensity (a.u.)"},
      {"sequence": "CATATATGTGTGTCTAGATTCATTAACATCTATATGATTGCGGAGTCACCTAGTGCAG", "binding signal": "4680 fluorescence intensity (a.u.)"},
      {"sequence": "GCTTTTAAATCGTTAAGAACACGTATATAAAAGTTTTATTCGGAGTCACCTAGTGCAG", "binding signal": "3700 fluorescence intensity (a.u.)"},
      {"sequence": "TCAGGCCTTAAGTGCCTTTGTAATAATGTAAATATTATCGCGGAGTCACCTAGTGCAG", "binding signal": "3320 fluorescence intensity (a.u.)"},
      {"sequence": "GTGGTGGACTGGTGGTGGCGGACTTGACGGCTCCCCACTGCGGAGTCACCTAGTGCAG", "binding signal": "3690 fluorescence intensity (a.u.)"},
      {"sequence": "CTAGCCACTGAAGCATGGGTCATGATACAGCAGTTAATATCGGAGTCACCTAGTGCAG", "binding signal": "3440 fluorescence intensity (a.u.)"},
      {"sequence": "CGGTAAATAGTTAAAAGCTCTGACGCGGAAAATTTATCTACGGAGTCACCTAGTGCAG", "binding signal": "3480 fluorescence intensity (a.u.)"},
      {"sequence": "TTTAAGCCTAATTGCGTCATGATTTGACAATGTGATACTACGGAGTCACCTAGTGCAG", "binding signal": "5800 fluorescence intensity (a.u.)"},
      {"sequence": "CCGTCGACTCTGTGCCACGTCCTGTTGCTCGTCGGATTCCCGGAGTCACCTAGTGCAG", "binding signal": "14000 fluorescence intensity (a.u.)"},
      {"sequence": "CGAGGGGCTGATCAGCTTCTGCCGGCAGCCGACGTTCGTGCGGAGTCACCTAGTGCAG", "binding signal": "3150 fluorescence intensity (a.u.)"},
      {"sequence": "GGTGCGACGGCTTGGTTGATTGGGTGACGGGTGGGATTTGCGGAGTCACCTAGTGCAG", "binding signal": "3540 fluorescence intensity (a.u.)"},
      {"sequence": "TCGGAGGTAGGCCACATCACGGTTTCAACTGTGTATAAGCCGGAGTCACCTAGTGCAG", "binding signal": "7760 fluorescence intensity (a.u.)"},
      {"sequence": "GCGCCCCGCTGCCGAGAGCCGCGCGCGCCGCCGTCGTCATCGGAGTCACCTAGTGCAG", "binding signal": "4120 fluorescence intensity (a.u.)"},
      {"sequence": "GACTCCAGCTGGCCTCCATTATTGGCTCTTAGTTAGCCAACGGAGTCACCTAGTGCAG", "binding signal": "3450 fluorescence intensity (a.u.)"},
      {"sequence": "CCGCCGCGCGTGGCTCCCCGGCCACGTCGTCGTCGTCGTCCGGAGTCACCTAGTGCAG", "binding signal": "10900 fluorescence intensity (a.u.)"},
      {"sequence": "ATCCCAGTTTGATACTGGAGTATGCTGATGCTAATGTAAACGGAGTCACCTAGTGCAG", "binding signal": "27700 fluorescence intensity (a.u.)"},
      {"sequence": "ATCGTGGAGGTTTTATATCAGCTAGTCACTTGGTTTACCGCGGAGTCACCTAGTGCAG", "binding signal": "3200 fluorescence intensity (a.u.)"},
      {"sequence": "TCCACCACCGCCTGCCTCCATCCACCTCCACTGCAACCTCCGGAGTCACCTAGTGCAG", "binding signal": "3670 fluorescence intensity (a.u.)"},
      {"sequence": "TGTGGCTGGCGTGTTTCCTGGTTTACGGACCGGTCATAATCGGAGTCACCTAGTGCAG", "binding signal": "11900 fluorescence intensity (a.u.)"},
      {"sequence": "CTGCTCCACGCATTCACCAACGCTCCCTGCGATGTTTTAGCGGAGTCACCTAGTGCAG", "binding signal": "4260 fluorescence intensity (a.u.)"},
      {"sequence": "TGTACCACGTCAATGATAAGAACAGCACACTGTAGAAAGTCGGAGTCACCTAGTGCAG", "binding signal": "4670 fluorescence intensity (a.u.)"},
      {"sequence": "CGACAGAGGCAGGCAGGCAGGCCAGTGGCTATAAAGACTCCGGAGTCACCTAGTGCAG", "binding signal": "38400 fluorescence intensity (a.u.)"},
      {"sequence": "GGTTGAGTGACGCGCTATTTCTGGTATTGCGTATGAAGGGCGGAGTCACCTAGTGCAG", "binding signal": "3520 fluorescence intensity (a.u.)"},
      {"sequence": "CAGTATTGCGGGCGAGCGCGCAGCTGAAATACTGAATCCTCGGAGTCACCTAGTGCAG", "binding signal": "32600 fluorescence intensity (a.u.)"},
      {"sequence": "AACTAGATTCGCTATTGCTATCCACATCCTAGATGGTCATCGGAGTCACCTAGTGCAG", "binding signal": "3630 fluorescence intensity (a.u.)"},
      {"sequence": "TATATATATATATATATATGGGTGGTGTTCTTTTCTCTGGCGGAGTCACCTAGTGCAG", "binding signal": "3790 fluorescence intensity (a.u.)"},
      {"sequence": "AGTTAAAACCAAATGAATATCTGCCACGCCATTGACCAAACGGAGTCACCTAGTGCAG", "binding signal": "4760 fluorescence intensity (a.u.)"},
      {"sequence": "GAAGAGCATTACGCTATGCATGACGTATTGCATGATTTGGCGGAGTCACCTAGTGCAG", "binding signal": "9150 fluorescence intensity (a.u.)"},
      {"sequence": "GGGACGGGAGGGTGGCGATGGCCGCGGAGACGGCTTCAGGCGGAGTCACCTAGTGCAG", "binding signal": "3550 fluorescence intensity (a.u.)"},
      {"sequence": "TCTGAAGAAAGGAGGAGGACAGGGTGGTGGTCAACAGGGCCGGAGTCACCTAGTGCAG", "binding signal": "29700 fluorescence intensity (a.u.)"},
      {"sequence": "CCAGCATCGCCGGCAGATCCACGTCGAGCATCGCGGCAGGCGGAGTCACCTAGTGCAG", "binding signal": "5190 fluorescence intensity (a.u.)"},
      {"sequence": "CGCGCGAGAACCGAAACCGCGCGACGCGCGGCCACGTCCCCGGAGTCACCTAGTGCAG", "binding signal": "5700 fluorescence intensity (a.u.)"},
      {"sequence": "GTCCCAGCCGCATGTCACTGCCACTCTGCACTCTTCTCTCCGGAGTCACCTAGTGCAG", "binding signal": "3840 fluorescence intensity (a.u.)"},
      {"sequence": "TACACTTGTGATGTCATGCCAGTAATAATGCTGTAATGGTCGGAGTCACCTAGTGCAG", "binding signal": "4170 fluorescence intensity (a.u.)"}
    ]}
  ]
}
